# Results as given in PubChem BioAssay AID651595 (National Center for Advancing Translational Sciences (NCATS), 2012).
# Hit rate of the full screen: of about 1,100 compounds, fewer than 10 were called active. Not shown: some 6% with an inconclusive outcome. Calls come from the whole dose curve; as a rule, active = well fitted cell-killing curve with a large enough effect; inconclusive = small, poorly fitted or top-dose-only effect; inactive = flat fitted curve, though single readings scatter. This is one part of the list.
# Assay: qHTS of Nrf2 Activators: Hit Validation in Cytotox Assay;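 note: compound exposure lasted 24 hours before the ATP readout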; for activity change, negative = cytotoxicity: 0% is about no effect
# Conditions: Cell viability counter-screen for Nrf2 activator hits; series mostly up to 46.1 µM; activity change, negative = cytotoxicity: at the top concentration
# From the text: Many diseases have some form of oxidative stress injury and ties to inflammation, causing a host of problems for the patient. The antioxidant response element (ARE) plays an important role in alleviating the harmful effects of oxidative stress. The antioxidant response element (ARE) is a transcriptional regulatory element involved in the activation of genes coding for a number of antioxidant proteins and detoxifying enzymes. These enzymes work in concert to protect tissues from oxidative insults and chemical toxicities in human hepatocytes and immune cells. The protective effects of ARE activation are primarily triggered through Nrf2 (NF-E2-related factor) binding to and activating AREs. It is known that Nrf2 controls the production of over 250 antioxidant and detoxification proteins (Hu et al., 2006), thereby protecting tissues by increasing cellular antioxidant content and suppressing inflammatory signaling pathways. The transcription factor Nrf2 is a central link between oxidative chemicals, such as phenolic antioxidants and electrophilic compounds, and the activation of ARE. Nrf2 levels are constitutively low as a consequence of its interaction with Keap1, which targets its degradation (Zipper and Mulcahy, 2002). Electrophiles react with key cysteine residues in Keap1, releasing Nrf2 and allowing its translocation to the nucleus. Once within the nucleus, Nrf2 complexes with coactivators such as p300, and binds to the AREs to induce gene transcription of cytoprotective enzymes, resulting in the prevention of toxicity. Activation of Nrf2 protects tissues by increasing cellular antioxidant content and suppressing inflammatory signaling pathways. Identifying novel and potent Nrf2 activators by using the AREc32 cell line to detect ARE activation by small molecules will lead to the identification and development of probes to study protective pathways in multiple tissues. These specific probes are essential to study the ARE pathway, and eventually to determine whether this pathway does activate genes that could protect against a host of diseases, including cardiovascular diseases, obesity, diabetes, Alzheimer's, and Parkinson's disease.
# This project's aim is to identify novel and potent Nrf2 activators by using the AREc32 cell line to detect ARE activation by small molecules, which will lead to the identification and development of probes to study the ARE pathway. Cytotoxic compounds are flagged as active, and inactivity is desired in this assay.
# NIH Chemical Genomics Center [NCGC]
# NIH Molecular Libraries Probe Centers Network [MLPCN]
# Assay Submitter (PI): Curtis Klaassen, University of Kansas Medical Center
# Cell viability after compound treatment was measured using a luciferase-coupled ATP quantitation assay (CellTiter-Glo, Promega) in AREc32_fluc cells. The change of intracellular ATP content indicates the number of metabolically competent cells after compound treatment. AREc32_fluc cells were harvested from T225 flask and resuspended in phenol red free OPTI-MEM medium with 5% FBS. Then 5 microL of 200,000 cells/ml resuspended cells was dispensed into each well of white, solid bottom, 1536-well tissue culture-treated plates using a Multidrop Combi dispenser. After overnight culture at 37 degrees C with 5% CO2, a total of 23 nL of compounds at 7 selected concentrations from the cherry pick or positive control (40 uM stock of CDDO-IM and 2 mM of tBHQ) in DMSO was transferred to each well of the assay plate using a pintool (Kalypsys, San Diego, CA), and the plates were further incubated at 37 degrees C with 5% CO2 for 24 hours. After that, 4 microL of CellTilter-GloTM luminescent substrate mix (Promega) was added to each well. The plate was incubated at room temperature for 30 minutes. The plates were measured on a ViewLux plate reader (PerkinElmer) with clear filter.
# Potency is the fitted concentration of half-maximal effect.
SMILES,"activity change, negative = cytotoxicity",Potency
CCOc1ccsc1C(=O)NNC(=O)c1ccco1,inactive: 1.67%,–
Cc1nc(NCc2ccco2)nc2c1C(=O)CC(C)C2 (stereo not given),inactive: -6.77%,–
Nc1nonc1N/N=C/c1c(O)ccc2ccccc12,inactive: 8.84%,–
Cc1cc(NC(=O)c2ccccc2)nc2c1c(=O)oc1ccccc12,inactive: 1.23%,–
O=[N+]([O-])c1cccc2ccc(/C=C/c3ccc(F)cc3)nc12,inactive: -1.49%,–
O=C(NCC1CCCO1)c1ccc([N+](=O)[O-])o1 (stereo not given),inactive: -12.8%,–
COc1ccc(N(CCCN2C(=O)c3cccc4cccc(c34)C2=O)C(=O)c2ccncc2)cc1,inactive: -0.299%,–
CCn1nc(C(=O)Nc2cccc3ccccc23)c(Cl)c1Cl,inactive: -0.414%,–
CNC(=O)c1ccsc1NC(=O)c1ccc(Cl)s1,inactive: 0.215%,–
Cc1cc(C)c(-n2c(SCCS(=O)(=O)c3ccc(F)cc3)n[nH]c2=O)c(C)c1,inactive: 1.99%,–
Nc1nc(Nc2cccc(Cl)c2)nc(NCCO)c1[N+](=O)[O-],inactive: 24.8%,–
O=C1C(Cl)=C(N2CCN(c3ccccc3[N+](=O)[O-])CC2)C(=O)c2ccccc21,–,active: 18.4 µM
CCn1c(=N)n(CC(=O)c2ccco2)c2ccccc21,inactive: 4.65%,–
Oc1ccc(Cl)cc1N=Cc1sc2ccccc2c1Cl,inactive: -16.3%,–
CCn1c(NC(=O)c2ccccc2)nc2ccccc21,inactive: -5.44%,–
CN1C2CCC1/C(=C\c1ccccc1)C(=O)/C2=C\c1ccccc1,inactive: -5.9%,–
Oc1ccc2ccccc2c1N=Nc1ccccn1,–,active: 5.17 µM
CC1CCc2c(cc(-c3ccccc3)n2-c2ccc(C(=O)NC(C)C)cc2)C1 (stereo not given),inactive: 2.77%,–
Cc1cc(Cl)cc2sc(NC(=O)c3ccco3)nc12,inactive: 10.8%,–
CCOCCCNC(=O)c1ccc(-n2c(-c3ccccc3)cc3c2CCC(C)C3)cc1 (stereo not given),inactive: 3.22%,–
Cn1c(=O)c2nc(-c3ccccc3)oc2c2ccccc21,inactive: 8.18%,–
Clc1ccc(-c2ccnc(-n3cccc3)n2)s1,inactive: 3.8%,–
CC(C)N1C/C(=C/c2cccnc2)C(=O)/C(=C/c2cccnc2)C1,inactive: 1.16%,–
CSc1nc(Oc2ccc(Cl)cc2)c2sccc2n1,inactive: 7.55%,–
CCn1c(/C=C/c2ccccc2)nc2ccccc2c1=O,inactive: -0.439%,–

# 4 structures already listed, ordered by length of the SMILES, rising:
SMILES,"activity change, negative = cytotoxicity",Potency
CSc1nc(Oc2ccc(Cl)cc2)c2sccc2n1,inactive: 7.55%,–
Oc1ccc(Cl)cc1N=Cc1sc2ccccc2c1Cl,inactive: -16.3%,–
Cc1cc(NC(=O)c2ccccc2)nc2c1c(=O)oc1ccccc12,inactive: 1.23%,–
O=[N+]([O-])c1cccc2ccc(/C=C/c3ccc(F)cc3)nc12,inactive: -1.49%,–

# Following part.

SMILES,"activity change, negative = cytotoxicity",Potency
CC(=O)Nc1ccc(S(=O)(=O)c2ccnc3cc(Cl)ccc23)cc1,inactive: 7.02%,–
O=C(/C=C/c1cccs1)c1ccco1,inactive: -0.0849%,–
O=C(Nc1cc(-c2nc3cc(Cl)ccc3o2)ccc1Cl)c1ccco1,inactive: 2.73%,–
O=C(OCC(=O)N1CCCC1)c1cc([N+](=O)[O-])ccc1Cl,inactive: 0.711%,–
COCCN(C(=O)COC(=O)/C=C/c1ccccc1Cl)c1c(N)n(Cc2ccccc2)c(=O)[nH]c1=O,inactive: 10.6%,–
c1ccc(C2=Nn3c(nnc3-c3ccco3)SC2)cc1,inactive: 6.11%,–
C/C(=N\NC(=O)CSc1nc2ccccc2s1)c1ccco1,inactive: 9.7%,–
COC(=O)c1ccc2nc(-c3cccc(Cl)c3)c(Cc3ccccc3OC)n2c1,inactive: -9.39%,–
CCOC(=O)c1ccsc1NC(=O)CCS(=O)(=O)c1ccccc1,inactive: 17.1%,–
O=C1C=C(Nc2cccc(Cl)c2)CC(c2ccco2)C1 (stereo not given),inactive: 3.61%,–
COn1c(-c2ccccc2)nc2c1CCc1c-2no[n+]1[O-],inactive: 4.9%,–
COC(=O)c1ccc2nc(-c3ccc(F)cc3)c(CC3CCCCC3)n2c1,inactive: -1.86%,–
O=C1C(=Cc2cccc(Cl)c2)Cc2ccccc21,inactive: -3.65%,–
COC(=O)c1sccc1NC(=O)c1c(C)noc1C,inactive: 2.24%,–
N#C/C(=C\c1cccs1)Sc1nc2ccccc2s1,inactive: -3.38%,–
O=[N+]([O-])c1cccc(C=NN=Cc2ccccc2O)c1,inactive: 0.601%,–
O=c1c2cc3c(=O)n(-c4ccccc4O)c(=O)c3cc2c(=O)n1-c1ccccc1O,inactive: 2.33%,–
Brc1ccc(C2=CC(c3ccco3)n3nnnc3N2)cc1 (stereo not given),inactive: 6.06%,–
O=C1N/C(=C\c2ccsc2)C(=O)N1Cc1ccc(F)cc1,inactive: 1.65%,–
c1ccc(N2CC3CCc4ccccc4C3=N2)cc1 (stereo not given),inactive: -0.313%,–
COc1cc(NC(=S)Nc2ccccn2)c(OC)cc1Cl,inactive: 1.25%,–
Cn1c(CC2C(=O)Nc3ccc(Br)cc32)nc2ccccc2c1=O (stereo not given),inactive: 0.978%,–
Brc1cc2c(cc1/C=N/Nc1nc3ccccc3s1)OCO2,inactive: 2.68%,–
S=c1[nH]nc(-c2ccco2)n1/N=C/c1ccc(Br)s1,inactive: 13.9%,–
Cc1cc(C)n(S(=O)(=O)/C=C/c2ccccc2)n1,inactive: 23%,–

SMILES,"activity change, negative = cytotoxicity",Potency
Cc1sc2ncnc(SCc3ccco3)c2c1C,inactive: 4.5%,–
O=C(CCN1C(=O)c2cccc3cccc(c23)C1=O)Nc1ccon1,inactive: 9.02%,–
O=c1[nH]c(O)c(/C=C2\C=Nc3ccccc32)[nH]1,inactive: 3.31%,–
O=C(Nc1cc2nn(-c3ccccc3)nc2cc1Cl)c1ccco1,inactive: 5.66%,–
O=[N+]([O-])c1cccc(-c2cnc3ccccc3n2)c1,inactive: 2.66%,–
Cc1ccc([N+](=O)[O-])cc1NC(=O)c1ccccc1,inactive: 0.318%,–
COC(=O)C(=C/C=C/c1ccco1)C(=O)OC,inactive: -3.27%,–
Cc1csc(-c2ccc3cc(Cl)cc(Cl)c3n2)n1,inactive: 4.13%,–
O=C(Nc1ccc(OC(F)F)cc1)c1ncc(Cl)c(Cl)c1Cl,inactive: 0.861%,–
COc1cc(OC)cc(-c2nc3ccccc3s2)c1,inactive: -0.0317%,–
Cc1c(Nc2nc3ccccc3n3cnnc23)cccc1[N+](=O)[O-],inactive: 8.26%,–
COc1ccc(Cl)cc1NC(=O)CSc1c2c(nc3ccccc13)CCC2,inactive: -1.25%,–
COC(=O)c1ccccc1NC(=O)/C=C/c1ccco1,inactive: -9.3%,–
Cn1c(=O)n(C)c2cc(NC(=O)c3cccc([N+](=O)[O-])c3)c(Br)cc21,inactive: -12.3%,–
CC1CCCCC1NC(=O)COC(=O)c1c2c(nc3ccccc13)/C(=C/c1ccco1)CC2 (stereo not given),inactive: -2.82%,–
CCN1C(=O)/C(=C\c2ccco2)C(C(=O)OC)=C1C,inactive: -2.74%,–
c1ccc(-c2ccc3c(c2)NC(C2Nc4cc(-c5ccccc5)ccc4O2)O3)cc1 (stereo not given),inactive: 0.452%,–
COC(=O)c1sccc1NC(=O)c1csc(C)c1,inactive: 5.54%,–
COc1cc(OCc2ccccc2)c(C(=O)/C=C/c2ccc3c(c2)OCO3)c(OC)c1OC,inactive: 4.11%,–
COC(=O)C1=C(C)N(c2ccc(Br)cc2)C(=O)/C1=C\c1ccco1,inactive: 2.27%,–
CS(=O)(=O)c1ccc2nc(NC(=O)CCS(=O)(=O)c3ccccc3)sc2c1,inactive: 11.9%,–
O=C(/C=C/c1ccccc1[N+](=O)[O-])N1CCc2ccccc2C1,inactive: 3.92%,–
O=C1C(=Cc2ccco2)CCCC1=Cc1ccco1,inactive: 1.09%,–
Cc1cc(C)c(C#N)c(SCC(=O)c2ccccc2)n1,inactive: 9.1%,–
O=[N+]([O-])c1cncc([N+](=O)[O-])c1Nc1cccc(O)c1,inactive: -19.7%,–
